Data reported in PubChem BioAssay AID1487 (National Center for Advancing Translational Sciences (NCATS), 2009).
The other results are listed elsewhere or left out. These are further read-outs of the screen, such as a control signal, another cell line or another target. No call is given for them. The list favours compounds with an active or inconclusive main result. Potencies come from curve fits of mixed quality, noted in brackets.

Test: qHTS Assay for Modulators of Lamin A Splicing
Conditions: HeLa LMNA splicing GFP/RFP minigene ratio, 48 h
Method in brief: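 S3 HeLa stable clones carrying a lamin A-EGFP splicing minigene plus DsRed2 were seeded at 600 cells/well in Opti-MEM with 2% FBS, pin-dosed and incubated 48 h at 37°C. Acumen cytometry (488 nm) gave the GFP/RFP total-intensity ratio.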

[1] = measured here: RFP viability control channel
[2] = measured here: GFP splicing reporter channel

| Compound | AC50 [1] | AC50 [2] |
| --- | --- | --- |
| CSCCC(NC(=O)c1ccccc1)c1nc(-c2ccccc2)no1 (stereo not drawn) | 12.6 µM [rising, partial curve] |  |
| COCCn1cnnc1SCC(=O)Nc1cccc(S(=O)(=O)N2CCCCCC2)c1 | 0.158 µM [falling, full curve, poor fit] | 0.158 µM [falling, full curve, poor fit] |
| CCC(=O)N1c2ccccc2CC1C(=O)NCc1ccc(CC)cc1 (stereo not drawn) | 0.794 µM [rising, full curve, poor fit] | 0.316 µM [rising, partial curve, poor fit] |
| COc1ccccc1CC(=O)NNS(=O)(=O)c1ccc([N+](=O)[O-])cc1 | 0.178 µM [falling, full curve, poor fit] |  |
| O=C(Nc1cccc(S(=O)(=O)C(F)F)c1)c1ccc(Cl)c(S(=O)(=O)N2CCOCC2)c1 | 20 µM [rising, partial curve, poor fit] |  |
| C=C(C)CNC(=S)N/N=C/c1ccc(N2CCOCC2)cc1 | 15.8 µM [rising, partial curve, poor fit] | 1.58 µM [rising, partial curve, poor fit] |
| CC1(C)CC(=O)C2=C(C1)OC(c1ccc(O)cc1)C(C#N)=C2N (stereo not drawn) | 0.282 µM [rising, full curve, poor fit] |  |
| CS(=O)(=O)c1ccc(Cl)c(C(=O)O)c1 | 5.62 µM [rising, single point] |  |
| N#CC1=C(SCc2ccccc2)NC2=C(C(=O)CCC2)C1c1ccc2c(c1)OCO2 (stereo not drawn) | 12.6 µM [rising, single point] | 8.91 µM [rising, partial curve] |
| CCOC(=O)c1[nH]c(C)c(C(=O)N2CCN(c3cccc(Cl)c3)CC2)c1C | 31.6 µM [rising, single point] |  |
| CN(C)CCOc1cccc(Br)c1 | 2.51 µM [rising, partial curve, poor fit] |  |
| CC(=O)c1ccc(S(=O)(=O)NC(=O)NC2CCCCC2)cc1 | 14.1 µM [falling, single point] |  |
| COc1ccc(C(=O)CSc2cc(C)nc(SCC(=O)c3ccc(C)cc3)n2)cc1 | 3.55 µM [rising, single point] | 2.51 µM [rising, full curve, poor fit] |
| CCc1c(C)nc2ncnn2c1N1CCCC(C(=O)Nc2cc(F)ccc2C)C1 (stereo not drawn) | 22.4 µM [rising, single point] |  |
| CCCCNC(=O)Cn1cnc2c(cnn2-c2ccc(C)c(C)c2)c1=O | 0.112 µM [rising, partial curve, poor fit] |  |
| Cc1ccc(-n2ncc(C(=O)NCc3ccc4c(c3)OCO4)c2C2CCN(C(=O)OC(C)(C)C)CC2)c(C)c1 | 5.62 µM [falling, single point] |  |
| COc1cc(C(=O)N/N=C/c2sccc2C)cc(OC)c1OC |  | 2 µM [falling, partial curve, poor fit] |
| COc1ccc(Nc2nc(-c3ccc(OC)cc3)cs2)cc1 |  | 5.01 µM [rising, partial curve] |

Seven entries from above, ordered by length of the SMILES, low to high.

| Compound | AC50 [1] | AC50 [2] |
| --- | --- | --- |
| CS(=O)(=O)c1ccc(Cl)c(C(=O)O)c1 | 5.62 µM [rising, single point] |  |
| COc1ccc(Nc2nc(-c3ccc(OC)cc3)cs2)cc1 |  | 5.01 µM [rising, partial curve] |
| C=C(C)CNC(=S)N/N=C/c1ccc(N2CCOCC2)cc1 | 15.8 µM [rising, partial curve, poor fit] | 1.58 µM [rising, partial curve, poor fit] |
| CCc1c(C)nc2ncnn2c1N1CCCC(C(=O)Nc2cc(F)ccc2C)C1 (stereo not drawn) | 22.4 µM [rising, single point] |  |
| N#CC1=C(SCc2ccccc2)NC2=C(C(=O)CCC2)C1c1ccc2c(c1)OCO2 (stereo not drawn) | 12.6 µM [rising, single point] | 8.91 µM [rising, partial curve] |
| O=C(Nc1cccc(S(=O)(=O)C(F)F)c1)c1ccc(Cl)c(S(=O)(=O)N2CCOCC2)c1 | 20 µM [rising, partial curve, poor fit] |  |
| Cc1ccc(-n2ncc(C(=O)NCc3ccc4c(c3)OCO4)c2C2CCN(C(=O)OC(C)(C)C)CC2)c(C)c1 | 5.62 µM [falling, single point] |  |

The list goes on.

| Compound | AC50 [1] | AC50 [2] |
| --- | --- | --- |
| CN(C)CCCN(C(=O)c1ccc2c(c1)CCCC2)c1nc2ccc(Cl)cc2s1 | 35.5 µM [rising, single point] |  |
| Cc1ccc(OCc2nnc(SC(C)C(=O)O)n2Cc2ccccc2)cc1 (stereo not drawn) | 0.0282 µM [falling, full curve, poor fit] |  |
| O=C(Cc1coc2cc3c(cc12)CCC3)NCC1(N2CCCCC2)CCCCC1 | 14.1 µM [rising, partial curve, poor fit] |  |
| O=C(O)C1C2C=CC(O2)C1C(=O)NCc1ccccc1Br (stereo not drawn) | 3.55 µM [falling, single point] | 5.62 µM [falling, single point] |
| CC(C)=NNc1nc(-c2ccc([N+](=O)[O-])cc2)cs1 | 3.55 µM [rising, single point] | 8.91 µM [rising, single point] |
| Cc1ccccc1C(=O)c1c[nH]c(C(=O)NCc2ccco2)c1 |  | 8.91 µM [falling, partial curve] |
| CCc1nnc(NC(=O)CSc2nccn2Cc2ccc(Cl)cc2)s1 | 0.0501 µM [rising, full curve, poor fit] | 0.0355 µM [rising, full curve] |
| O=C(O)CC(C(=O)Nc1cccc(C(F)(F)F)c1)C1CCCO1 (stereo not drawn) | 35.5 µM [rising, single point] |  |
| Cc1ccc(S(=O)(=O)NNC(=O)c2cccnc2)cc1 | 1.26 µM [rising, single point] | 1.26 µM [rising, single point] |
| CCCc1nnc(SCc2cc(=O)c3c(C)cc(C)cc3[nH]2)n1C | 1.78 µM [rising, partial curve] | 1.26 µM [rising, partial curve] |
| COc1ccc(NC(=S)NCc2cccs2)c(OC)c1 |  | 0.0158 µM [rising, full curve, poor fit] |
| CCc1c(C(=O)Nc2ccc(S(=O)(=O)N3CCOCC3)cc2)csc1C | 14.1 µM [rising, single point] | 11.2 µM [rising, partial curve, poor fit] |
| CC1(c2ccc(OCC#N)cc2)C=C(c2ccc(OCC#N)cc2)n2nc(C(F)(F)F)nc2N1 (stereo not drawn) |  | 11.2 µM [rising, partial curve] |
| COCCNC(=O)c1ccc2c(c1)ncn2-c1cc(C)ccc1OC | 1.26 µM [falling, single point] |  |
| CCc1ccc(CNC(=O)Cn2nc(C)c3nn(-c4ccc(Cl)cc4)c(C)c3c2=O)cc1 | 22.4 µM [falling, single point] | 22.4 µM [falling, single point] |
| COc1ccc(OCC(=O)NCc2ccc3c(c2)CCN3C(=O)c2cccc(C)c2)cc1 | 3.55 µM [rising, single point] |  |
| CSc1ccc(CCNC(=O)c2ccc(-n3c(C)cc4c3CCC(C)C4)cc2)cc1 (stereo not drawn) | 0.1 µM [rising, single point] |  |
| COc1ccccc1C(=O)NNC(=O)c1cccc(F)c1 | 3.98 µM [rising, full curve] |  |
